Data as given in publication PMC7549910.

By UniProt entry, the sequences of proteins in these tests, tags left out. Where a name states a change or a piece, a line headed by the entry shows the natural chain unless it says otherwise. Residues count along the entry.
UniProt Q4FE21: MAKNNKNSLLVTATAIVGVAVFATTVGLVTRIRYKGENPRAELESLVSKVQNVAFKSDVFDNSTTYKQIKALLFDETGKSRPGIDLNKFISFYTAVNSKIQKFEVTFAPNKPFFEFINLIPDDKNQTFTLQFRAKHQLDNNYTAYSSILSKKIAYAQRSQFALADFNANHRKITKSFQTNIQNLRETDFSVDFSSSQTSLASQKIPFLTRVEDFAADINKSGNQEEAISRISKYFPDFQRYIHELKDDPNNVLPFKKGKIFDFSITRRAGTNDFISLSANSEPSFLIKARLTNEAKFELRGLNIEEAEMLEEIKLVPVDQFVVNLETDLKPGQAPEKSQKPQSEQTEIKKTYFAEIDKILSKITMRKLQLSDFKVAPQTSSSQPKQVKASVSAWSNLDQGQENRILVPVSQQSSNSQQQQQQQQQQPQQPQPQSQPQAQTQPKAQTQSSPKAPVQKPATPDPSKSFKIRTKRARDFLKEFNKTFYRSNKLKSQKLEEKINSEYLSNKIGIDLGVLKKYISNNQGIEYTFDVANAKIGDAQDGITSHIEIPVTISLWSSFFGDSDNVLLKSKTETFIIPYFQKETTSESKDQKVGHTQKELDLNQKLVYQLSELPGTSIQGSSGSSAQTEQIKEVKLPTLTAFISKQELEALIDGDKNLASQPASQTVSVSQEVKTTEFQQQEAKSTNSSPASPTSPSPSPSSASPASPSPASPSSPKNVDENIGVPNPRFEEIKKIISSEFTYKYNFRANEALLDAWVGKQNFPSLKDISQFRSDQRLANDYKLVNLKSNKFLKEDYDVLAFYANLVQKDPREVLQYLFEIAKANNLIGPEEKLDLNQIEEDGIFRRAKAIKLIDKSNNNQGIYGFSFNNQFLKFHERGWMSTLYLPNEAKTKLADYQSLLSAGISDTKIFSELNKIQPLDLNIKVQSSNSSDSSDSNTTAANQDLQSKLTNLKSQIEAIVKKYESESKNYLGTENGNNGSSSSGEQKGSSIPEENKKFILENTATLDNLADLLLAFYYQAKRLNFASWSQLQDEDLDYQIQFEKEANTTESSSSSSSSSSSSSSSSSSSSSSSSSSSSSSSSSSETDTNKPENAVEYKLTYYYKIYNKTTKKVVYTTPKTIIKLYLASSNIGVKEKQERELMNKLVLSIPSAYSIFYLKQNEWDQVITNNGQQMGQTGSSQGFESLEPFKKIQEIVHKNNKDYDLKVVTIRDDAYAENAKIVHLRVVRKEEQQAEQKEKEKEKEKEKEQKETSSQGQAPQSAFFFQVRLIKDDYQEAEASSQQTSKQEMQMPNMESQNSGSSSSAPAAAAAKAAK
UniProt P08603, residues 19-1231: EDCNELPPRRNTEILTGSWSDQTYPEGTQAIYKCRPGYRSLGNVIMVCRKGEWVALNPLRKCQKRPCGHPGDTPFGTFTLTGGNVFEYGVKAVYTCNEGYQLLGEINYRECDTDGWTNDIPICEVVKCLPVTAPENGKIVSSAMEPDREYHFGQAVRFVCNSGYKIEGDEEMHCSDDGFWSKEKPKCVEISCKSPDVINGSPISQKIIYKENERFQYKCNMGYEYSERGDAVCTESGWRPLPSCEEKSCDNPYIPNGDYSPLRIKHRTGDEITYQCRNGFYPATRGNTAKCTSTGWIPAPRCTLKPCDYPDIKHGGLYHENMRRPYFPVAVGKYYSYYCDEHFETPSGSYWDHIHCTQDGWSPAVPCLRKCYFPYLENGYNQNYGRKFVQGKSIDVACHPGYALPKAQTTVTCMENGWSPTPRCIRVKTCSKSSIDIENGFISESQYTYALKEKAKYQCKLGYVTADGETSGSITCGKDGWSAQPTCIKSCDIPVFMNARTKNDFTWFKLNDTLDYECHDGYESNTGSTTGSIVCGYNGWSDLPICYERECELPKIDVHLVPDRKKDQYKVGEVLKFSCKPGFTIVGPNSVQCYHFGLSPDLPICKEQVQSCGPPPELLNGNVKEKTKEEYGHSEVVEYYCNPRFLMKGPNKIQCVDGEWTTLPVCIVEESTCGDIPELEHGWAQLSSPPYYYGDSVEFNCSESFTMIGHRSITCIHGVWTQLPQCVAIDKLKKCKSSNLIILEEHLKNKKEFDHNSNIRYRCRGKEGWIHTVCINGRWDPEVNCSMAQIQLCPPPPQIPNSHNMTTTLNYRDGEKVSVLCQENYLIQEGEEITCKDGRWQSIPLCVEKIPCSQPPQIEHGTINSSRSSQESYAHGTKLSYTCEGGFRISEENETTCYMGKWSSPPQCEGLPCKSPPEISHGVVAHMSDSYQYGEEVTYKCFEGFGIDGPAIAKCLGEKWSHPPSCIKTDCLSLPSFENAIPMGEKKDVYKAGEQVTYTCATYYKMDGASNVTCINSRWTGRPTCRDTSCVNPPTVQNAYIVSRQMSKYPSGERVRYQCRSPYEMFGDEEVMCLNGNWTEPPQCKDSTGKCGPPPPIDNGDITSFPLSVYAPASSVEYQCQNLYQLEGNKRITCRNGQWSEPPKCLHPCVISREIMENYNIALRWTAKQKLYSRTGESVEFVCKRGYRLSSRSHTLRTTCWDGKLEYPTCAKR

Target: P146 adhesin like-protein of M. hyopneumoniae (M. hyopneumoniae (endogenous in strain 168)) (UniProt Q4FE21)
Assay: far-Western, overlay or dot blot; surface (Triton X-114) proteins of M. hyopneumoniae strain 168 resolved by 2-DE and transferred to PVDF; 10 ug/mL factor H in TBST overnight at 4°C; rabbit anti-factor H and HRP anti-rabbit, DAB; reactive spots identified by MALDI-TOF-MS; only the binder purified

In the case of “human factor H (from UniProt P08603 19-1231)”, the binding is reported as “binds”.

These are yes or no findings as the source states them, for the method shown. A result given as binding can be weak or reduced; the word gives no strength.
